The test has as its target T1, GST-p107-R1R2 (human) (UniProt P28749).
T1 sequence: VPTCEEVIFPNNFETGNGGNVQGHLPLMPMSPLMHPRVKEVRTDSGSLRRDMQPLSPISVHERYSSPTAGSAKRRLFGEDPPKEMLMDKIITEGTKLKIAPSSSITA
The experiment in a line: pull-down; competition: purified PP2A/B55α holoenzymes preincubated with increasing nM HA-Fam122a 30 min at 37 °C, then with µM GST-p107 R1R2 on beads 3 h or overnight at 4 °C; blots for B55α and GST; both purified.

One substance from article PMC11233601 can be followed below.

No constants are given. Whether binding was seen depends on the method and setting. A result given as binding can be weak or reduced; the word gives no strength. Sequences can lack the tags named with a protein.

As to purified PP2A/B55α holoenzyme (complex), the binding result was “binds”.
